Results as given in PMC5702644.
No constants are given. Whether binding was seen depends on the method and setting. In cells and extracts the contact can be indirect. A yes stands for co-enrichment or nearness to the bait. Other partners may have been found. For part of these data: No binding means not detected with the bait.

Protein sequences, listed by entry. Tags and fused reporters are not part of them.
UniProt P68400: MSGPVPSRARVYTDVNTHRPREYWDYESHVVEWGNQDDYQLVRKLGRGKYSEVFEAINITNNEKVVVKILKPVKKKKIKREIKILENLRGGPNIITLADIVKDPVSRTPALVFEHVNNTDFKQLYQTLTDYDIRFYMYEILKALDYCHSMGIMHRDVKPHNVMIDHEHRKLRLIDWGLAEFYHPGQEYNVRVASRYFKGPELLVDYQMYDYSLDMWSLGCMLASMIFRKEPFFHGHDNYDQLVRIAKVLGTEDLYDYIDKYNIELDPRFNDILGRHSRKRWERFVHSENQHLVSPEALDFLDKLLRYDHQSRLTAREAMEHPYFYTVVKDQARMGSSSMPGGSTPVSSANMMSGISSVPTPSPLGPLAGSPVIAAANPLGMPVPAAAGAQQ
UniProt P67870: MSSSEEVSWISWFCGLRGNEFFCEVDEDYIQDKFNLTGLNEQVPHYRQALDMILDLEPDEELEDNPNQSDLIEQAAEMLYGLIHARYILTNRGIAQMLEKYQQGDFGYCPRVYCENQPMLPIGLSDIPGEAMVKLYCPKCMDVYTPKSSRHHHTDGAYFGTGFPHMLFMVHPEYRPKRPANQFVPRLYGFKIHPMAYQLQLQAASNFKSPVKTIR
UniProt Q15349: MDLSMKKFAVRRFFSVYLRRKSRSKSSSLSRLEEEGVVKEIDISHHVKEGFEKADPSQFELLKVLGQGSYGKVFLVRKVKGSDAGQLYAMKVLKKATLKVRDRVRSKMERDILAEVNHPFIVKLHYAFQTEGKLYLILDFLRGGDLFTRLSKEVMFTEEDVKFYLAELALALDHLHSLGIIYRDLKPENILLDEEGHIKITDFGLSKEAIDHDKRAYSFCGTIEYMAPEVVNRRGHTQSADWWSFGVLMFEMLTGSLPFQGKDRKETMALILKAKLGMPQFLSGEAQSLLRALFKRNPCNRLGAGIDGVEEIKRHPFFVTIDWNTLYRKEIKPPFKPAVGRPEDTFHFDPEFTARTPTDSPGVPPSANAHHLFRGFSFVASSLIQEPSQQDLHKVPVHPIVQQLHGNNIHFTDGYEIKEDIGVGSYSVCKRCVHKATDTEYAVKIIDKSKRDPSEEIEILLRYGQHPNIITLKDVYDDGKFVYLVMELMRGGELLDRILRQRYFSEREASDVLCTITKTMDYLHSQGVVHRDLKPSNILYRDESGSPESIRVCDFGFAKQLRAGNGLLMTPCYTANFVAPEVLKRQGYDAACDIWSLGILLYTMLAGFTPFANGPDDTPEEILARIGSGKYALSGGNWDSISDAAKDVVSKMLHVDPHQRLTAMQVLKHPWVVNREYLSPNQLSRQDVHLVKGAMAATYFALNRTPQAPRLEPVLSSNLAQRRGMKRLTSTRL
UniProt Q15418: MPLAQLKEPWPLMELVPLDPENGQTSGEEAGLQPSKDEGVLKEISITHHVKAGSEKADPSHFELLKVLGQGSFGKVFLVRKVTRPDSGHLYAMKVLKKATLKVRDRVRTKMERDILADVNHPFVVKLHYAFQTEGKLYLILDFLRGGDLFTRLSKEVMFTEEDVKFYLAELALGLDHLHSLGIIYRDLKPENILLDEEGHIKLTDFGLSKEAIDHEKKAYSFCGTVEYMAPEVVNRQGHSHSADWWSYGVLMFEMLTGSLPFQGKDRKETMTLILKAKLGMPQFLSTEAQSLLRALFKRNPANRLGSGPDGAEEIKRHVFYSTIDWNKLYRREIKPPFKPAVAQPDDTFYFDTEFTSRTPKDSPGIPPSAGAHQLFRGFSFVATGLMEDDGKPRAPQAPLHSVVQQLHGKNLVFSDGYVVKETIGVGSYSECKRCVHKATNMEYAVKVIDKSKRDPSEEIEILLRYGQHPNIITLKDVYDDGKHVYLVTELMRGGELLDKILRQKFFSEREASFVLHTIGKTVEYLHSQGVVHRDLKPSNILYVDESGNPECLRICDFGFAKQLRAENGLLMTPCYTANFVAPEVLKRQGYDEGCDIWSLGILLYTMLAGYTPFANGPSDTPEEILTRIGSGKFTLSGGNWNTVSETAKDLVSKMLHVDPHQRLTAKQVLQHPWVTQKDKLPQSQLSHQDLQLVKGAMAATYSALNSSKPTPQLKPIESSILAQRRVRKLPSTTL
UniProt Q9UK32: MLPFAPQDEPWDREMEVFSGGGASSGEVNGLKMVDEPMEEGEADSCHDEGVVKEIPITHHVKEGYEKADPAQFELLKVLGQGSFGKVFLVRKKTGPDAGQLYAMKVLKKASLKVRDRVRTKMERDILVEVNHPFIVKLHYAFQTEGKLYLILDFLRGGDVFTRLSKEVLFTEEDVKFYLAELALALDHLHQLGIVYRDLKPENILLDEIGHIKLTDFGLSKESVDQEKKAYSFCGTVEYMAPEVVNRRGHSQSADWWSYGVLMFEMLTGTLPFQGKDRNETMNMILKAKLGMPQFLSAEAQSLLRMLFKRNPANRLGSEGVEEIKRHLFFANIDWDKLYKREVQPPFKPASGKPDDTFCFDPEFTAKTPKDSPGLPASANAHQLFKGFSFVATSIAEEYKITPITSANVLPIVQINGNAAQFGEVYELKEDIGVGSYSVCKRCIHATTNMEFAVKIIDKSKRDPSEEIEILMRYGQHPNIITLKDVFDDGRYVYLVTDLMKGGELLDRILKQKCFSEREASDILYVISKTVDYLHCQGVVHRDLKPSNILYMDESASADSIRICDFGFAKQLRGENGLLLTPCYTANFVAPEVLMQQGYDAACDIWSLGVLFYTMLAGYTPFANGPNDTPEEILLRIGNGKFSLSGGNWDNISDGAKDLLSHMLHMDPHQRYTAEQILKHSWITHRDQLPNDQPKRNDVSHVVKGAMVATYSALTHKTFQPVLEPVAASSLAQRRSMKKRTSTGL

How the values were obtained:
Experiment in all cases: affinity purification with mass spectrometry; FLAG-tagged CK2 subunit transiently transfected into HEK-293T cells arrested in mitosis (thymidine, Taxol); anti-FLAG M2 affinity gel, 2 h at 4°C, 50 mM Tris-HCl pH 7.5, 150 mM NaCl, 1% Triton-X100; eluted with 3xFLAG peptide, TCA precipitated, LC-MS/MS; quadruplicate; hits enriched 3-fold or more above control pull-downs
[1] = biological target: FLAG-tagged CK2α (human) (UniProt P68400)
[2] = biological target: FLAG-tagged CK2α' (human) (UniProt P19784)
[3] = biological target: FLAG-tagged CK2β (human) (UniProt P67870)

binding [1] | binding [2] | binding [3] | Substance
no binding | no binding | binds | RPS6KA2 (from UniProt Q15349 1-733) (enzyme)
no binding | no binding | binds | RSK α1 (90 kDa ribosomal S6 kinase family) (from UniProt Q15418 1-735) (enzyme)
no binding | no binding | binds | RSK α3 (90 kDa ribosomal S6 kinase family) (from UniProt P51812 1-740) (enzyme)
no binding | no binding | binds | RSK α6 (90 kDa ribosomal S6 kinase family) (from UniProt Q9UK32 1-745) (enzyme)
